Measured values from article PMC6208480.
Results are given in words; binding and its absence hold for the method and conditions named. Binding seen in cells or lysates may run through a third protein. Some entries that bind do so weakly or less than the wild type.

Protein sequences, listed by entry. Tags and fused reporters are not part of them.
UniProt Q9Z2V6: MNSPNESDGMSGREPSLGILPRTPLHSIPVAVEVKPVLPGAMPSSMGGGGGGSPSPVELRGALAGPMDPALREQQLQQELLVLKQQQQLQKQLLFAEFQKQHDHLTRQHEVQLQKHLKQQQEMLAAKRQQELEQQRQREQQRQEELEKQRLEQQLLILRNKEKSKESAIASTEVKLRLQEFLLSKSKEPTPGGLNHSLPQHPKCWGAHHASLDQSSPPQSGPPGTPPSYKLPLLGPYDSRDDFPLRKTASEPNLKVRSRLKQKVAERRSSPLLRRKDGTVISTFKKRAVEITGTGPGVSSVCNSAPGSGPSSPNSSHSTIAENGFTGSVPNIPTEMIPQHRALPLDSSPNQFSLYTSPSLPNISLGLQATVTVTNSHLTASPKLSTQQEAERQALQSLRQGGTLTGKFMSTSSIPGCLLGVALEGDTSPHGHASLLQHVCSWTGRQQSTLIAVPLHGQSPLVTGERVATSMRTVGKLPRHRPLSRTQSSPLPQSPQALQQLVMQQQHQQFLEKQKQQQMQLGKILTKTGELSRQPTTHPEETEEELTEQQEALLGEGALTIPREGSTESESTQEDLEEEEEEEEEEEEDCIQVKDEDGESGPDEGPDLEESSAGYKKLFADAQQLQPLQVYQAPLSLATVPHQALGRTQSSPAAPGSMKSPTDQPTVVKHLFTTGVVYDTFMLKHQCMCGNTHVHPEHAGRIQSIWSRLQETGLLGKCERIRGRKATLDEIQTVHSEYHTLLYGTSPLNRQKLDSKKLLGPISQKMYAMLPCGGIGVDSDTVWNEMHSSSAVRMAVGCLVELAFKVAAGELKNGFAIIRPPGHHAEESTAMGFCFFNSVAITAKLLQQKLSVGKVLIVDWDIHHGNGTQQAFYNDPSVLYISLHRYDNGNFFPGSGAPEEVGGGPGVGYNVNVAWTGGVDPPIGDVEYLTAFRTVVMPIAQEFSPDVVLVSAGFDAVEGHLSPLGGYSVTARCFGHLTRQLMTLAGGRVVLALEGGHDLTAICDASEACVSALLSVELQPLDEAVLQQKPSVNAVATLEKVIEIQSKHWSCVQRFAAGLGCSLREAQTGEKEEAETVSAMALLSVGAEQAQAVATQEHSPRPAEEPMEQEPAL
UniProt Q9WTL8: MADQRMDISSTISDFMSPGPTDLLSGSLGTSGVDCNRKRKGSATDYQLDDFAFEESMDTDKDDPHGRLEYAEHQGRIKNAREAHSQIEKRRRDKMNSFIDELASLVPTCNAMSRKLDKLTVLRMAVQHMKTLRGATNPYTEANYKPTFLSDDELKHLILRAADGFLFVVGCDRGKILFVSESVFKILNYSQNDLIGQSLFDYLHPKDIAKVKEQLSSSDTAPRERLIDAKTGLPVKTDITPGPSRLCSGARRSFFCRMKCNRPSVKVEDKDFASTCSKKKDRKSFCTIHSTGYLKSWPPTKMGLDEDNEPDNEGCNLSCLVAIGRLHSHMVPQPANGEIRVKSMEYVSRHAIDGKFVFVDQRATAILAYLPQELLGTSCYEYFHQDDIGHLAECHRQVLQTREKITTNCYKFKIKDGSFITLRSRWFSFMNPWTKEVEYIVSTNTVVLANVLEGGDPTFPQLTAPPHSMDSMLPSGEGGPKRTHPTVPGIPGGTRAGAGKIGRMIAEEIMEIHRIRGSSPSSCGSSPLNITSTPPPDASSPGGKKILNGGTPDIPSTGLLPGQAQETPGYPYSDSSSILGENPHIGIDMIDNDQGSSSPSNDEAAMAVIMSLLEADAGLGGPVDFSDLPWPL

Key:
[1] = target: HDAC5 (endogenous, mouse liver) (mouse (endogenous in liver)) (UniProt Q9Z2V6); test: co-IP; immunoprecipitation of HDAC5 from liver samples of RD- or HFD-fed mice, immunoblot of BMAL1
[2] = target: HDAC5 (endogenous, primary hepatocytes) (not stated (endogenous in primary hepatocytes)) (UniProt Q9Z2V6); test: co-IP; immunoprecipitation of endogenous HDAC5 from primary hepatocytes, immunoblot of BMAL1; cells untreated or exposed to FSK

Row | binding [1] | binding [2] | Substance
1 | binds | – | BMAL1 (endogenous, mouse liver) (from UniProt Q9WTL8 1-632)
2 | – | binds | BMAL1 (endogenous, primary hepatocytes) (from UniProt Q9WTL8 1-632)
